According to the supplement of paper PMC10849652:
Some of the results follow.

By UniProt entry, the sequences of proteins in these tests, tags left out. Where a name states a change or a piece, a line headed by the entry shows the natural chain unless it says otherwise.
UniProt Q9Y3B8: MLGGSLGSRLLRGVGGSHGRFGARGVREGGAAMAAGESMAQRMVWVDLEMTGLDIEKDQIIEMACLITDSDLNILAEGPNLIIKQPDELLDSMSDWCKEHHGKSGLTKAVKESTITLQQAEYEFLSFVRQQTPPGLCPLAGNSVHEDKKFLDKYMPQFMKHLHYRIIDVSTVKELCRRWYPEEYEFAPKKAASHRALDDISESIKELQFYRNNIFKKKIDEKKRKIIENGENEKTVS
UniProt O43353, whole entry, looked up: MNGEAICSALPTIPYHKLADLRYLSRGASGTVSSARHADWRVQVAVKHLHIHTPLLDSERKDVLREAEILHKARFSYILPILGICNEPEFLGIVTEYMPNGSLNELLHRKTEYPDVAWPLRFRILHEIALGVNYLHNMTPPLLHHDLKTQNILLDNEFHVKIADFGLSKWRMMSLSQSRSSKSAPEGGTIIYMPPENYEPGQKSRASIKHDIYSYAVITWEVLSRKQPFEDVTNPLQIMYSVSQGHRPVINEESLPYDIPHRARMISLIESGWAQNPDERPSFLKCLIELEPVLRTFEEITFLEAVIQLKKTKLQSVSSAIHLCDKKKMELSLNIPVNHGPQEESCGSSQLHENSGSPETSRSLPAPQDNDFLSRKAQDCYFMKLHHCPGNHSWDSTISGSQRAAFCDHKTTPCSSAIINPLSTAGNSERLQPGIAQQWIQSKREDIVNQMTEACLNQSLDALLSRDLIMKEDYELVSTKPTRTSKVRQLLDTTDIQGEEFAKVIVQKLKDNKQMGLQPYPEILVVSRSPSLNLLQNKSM
UniProt P78509: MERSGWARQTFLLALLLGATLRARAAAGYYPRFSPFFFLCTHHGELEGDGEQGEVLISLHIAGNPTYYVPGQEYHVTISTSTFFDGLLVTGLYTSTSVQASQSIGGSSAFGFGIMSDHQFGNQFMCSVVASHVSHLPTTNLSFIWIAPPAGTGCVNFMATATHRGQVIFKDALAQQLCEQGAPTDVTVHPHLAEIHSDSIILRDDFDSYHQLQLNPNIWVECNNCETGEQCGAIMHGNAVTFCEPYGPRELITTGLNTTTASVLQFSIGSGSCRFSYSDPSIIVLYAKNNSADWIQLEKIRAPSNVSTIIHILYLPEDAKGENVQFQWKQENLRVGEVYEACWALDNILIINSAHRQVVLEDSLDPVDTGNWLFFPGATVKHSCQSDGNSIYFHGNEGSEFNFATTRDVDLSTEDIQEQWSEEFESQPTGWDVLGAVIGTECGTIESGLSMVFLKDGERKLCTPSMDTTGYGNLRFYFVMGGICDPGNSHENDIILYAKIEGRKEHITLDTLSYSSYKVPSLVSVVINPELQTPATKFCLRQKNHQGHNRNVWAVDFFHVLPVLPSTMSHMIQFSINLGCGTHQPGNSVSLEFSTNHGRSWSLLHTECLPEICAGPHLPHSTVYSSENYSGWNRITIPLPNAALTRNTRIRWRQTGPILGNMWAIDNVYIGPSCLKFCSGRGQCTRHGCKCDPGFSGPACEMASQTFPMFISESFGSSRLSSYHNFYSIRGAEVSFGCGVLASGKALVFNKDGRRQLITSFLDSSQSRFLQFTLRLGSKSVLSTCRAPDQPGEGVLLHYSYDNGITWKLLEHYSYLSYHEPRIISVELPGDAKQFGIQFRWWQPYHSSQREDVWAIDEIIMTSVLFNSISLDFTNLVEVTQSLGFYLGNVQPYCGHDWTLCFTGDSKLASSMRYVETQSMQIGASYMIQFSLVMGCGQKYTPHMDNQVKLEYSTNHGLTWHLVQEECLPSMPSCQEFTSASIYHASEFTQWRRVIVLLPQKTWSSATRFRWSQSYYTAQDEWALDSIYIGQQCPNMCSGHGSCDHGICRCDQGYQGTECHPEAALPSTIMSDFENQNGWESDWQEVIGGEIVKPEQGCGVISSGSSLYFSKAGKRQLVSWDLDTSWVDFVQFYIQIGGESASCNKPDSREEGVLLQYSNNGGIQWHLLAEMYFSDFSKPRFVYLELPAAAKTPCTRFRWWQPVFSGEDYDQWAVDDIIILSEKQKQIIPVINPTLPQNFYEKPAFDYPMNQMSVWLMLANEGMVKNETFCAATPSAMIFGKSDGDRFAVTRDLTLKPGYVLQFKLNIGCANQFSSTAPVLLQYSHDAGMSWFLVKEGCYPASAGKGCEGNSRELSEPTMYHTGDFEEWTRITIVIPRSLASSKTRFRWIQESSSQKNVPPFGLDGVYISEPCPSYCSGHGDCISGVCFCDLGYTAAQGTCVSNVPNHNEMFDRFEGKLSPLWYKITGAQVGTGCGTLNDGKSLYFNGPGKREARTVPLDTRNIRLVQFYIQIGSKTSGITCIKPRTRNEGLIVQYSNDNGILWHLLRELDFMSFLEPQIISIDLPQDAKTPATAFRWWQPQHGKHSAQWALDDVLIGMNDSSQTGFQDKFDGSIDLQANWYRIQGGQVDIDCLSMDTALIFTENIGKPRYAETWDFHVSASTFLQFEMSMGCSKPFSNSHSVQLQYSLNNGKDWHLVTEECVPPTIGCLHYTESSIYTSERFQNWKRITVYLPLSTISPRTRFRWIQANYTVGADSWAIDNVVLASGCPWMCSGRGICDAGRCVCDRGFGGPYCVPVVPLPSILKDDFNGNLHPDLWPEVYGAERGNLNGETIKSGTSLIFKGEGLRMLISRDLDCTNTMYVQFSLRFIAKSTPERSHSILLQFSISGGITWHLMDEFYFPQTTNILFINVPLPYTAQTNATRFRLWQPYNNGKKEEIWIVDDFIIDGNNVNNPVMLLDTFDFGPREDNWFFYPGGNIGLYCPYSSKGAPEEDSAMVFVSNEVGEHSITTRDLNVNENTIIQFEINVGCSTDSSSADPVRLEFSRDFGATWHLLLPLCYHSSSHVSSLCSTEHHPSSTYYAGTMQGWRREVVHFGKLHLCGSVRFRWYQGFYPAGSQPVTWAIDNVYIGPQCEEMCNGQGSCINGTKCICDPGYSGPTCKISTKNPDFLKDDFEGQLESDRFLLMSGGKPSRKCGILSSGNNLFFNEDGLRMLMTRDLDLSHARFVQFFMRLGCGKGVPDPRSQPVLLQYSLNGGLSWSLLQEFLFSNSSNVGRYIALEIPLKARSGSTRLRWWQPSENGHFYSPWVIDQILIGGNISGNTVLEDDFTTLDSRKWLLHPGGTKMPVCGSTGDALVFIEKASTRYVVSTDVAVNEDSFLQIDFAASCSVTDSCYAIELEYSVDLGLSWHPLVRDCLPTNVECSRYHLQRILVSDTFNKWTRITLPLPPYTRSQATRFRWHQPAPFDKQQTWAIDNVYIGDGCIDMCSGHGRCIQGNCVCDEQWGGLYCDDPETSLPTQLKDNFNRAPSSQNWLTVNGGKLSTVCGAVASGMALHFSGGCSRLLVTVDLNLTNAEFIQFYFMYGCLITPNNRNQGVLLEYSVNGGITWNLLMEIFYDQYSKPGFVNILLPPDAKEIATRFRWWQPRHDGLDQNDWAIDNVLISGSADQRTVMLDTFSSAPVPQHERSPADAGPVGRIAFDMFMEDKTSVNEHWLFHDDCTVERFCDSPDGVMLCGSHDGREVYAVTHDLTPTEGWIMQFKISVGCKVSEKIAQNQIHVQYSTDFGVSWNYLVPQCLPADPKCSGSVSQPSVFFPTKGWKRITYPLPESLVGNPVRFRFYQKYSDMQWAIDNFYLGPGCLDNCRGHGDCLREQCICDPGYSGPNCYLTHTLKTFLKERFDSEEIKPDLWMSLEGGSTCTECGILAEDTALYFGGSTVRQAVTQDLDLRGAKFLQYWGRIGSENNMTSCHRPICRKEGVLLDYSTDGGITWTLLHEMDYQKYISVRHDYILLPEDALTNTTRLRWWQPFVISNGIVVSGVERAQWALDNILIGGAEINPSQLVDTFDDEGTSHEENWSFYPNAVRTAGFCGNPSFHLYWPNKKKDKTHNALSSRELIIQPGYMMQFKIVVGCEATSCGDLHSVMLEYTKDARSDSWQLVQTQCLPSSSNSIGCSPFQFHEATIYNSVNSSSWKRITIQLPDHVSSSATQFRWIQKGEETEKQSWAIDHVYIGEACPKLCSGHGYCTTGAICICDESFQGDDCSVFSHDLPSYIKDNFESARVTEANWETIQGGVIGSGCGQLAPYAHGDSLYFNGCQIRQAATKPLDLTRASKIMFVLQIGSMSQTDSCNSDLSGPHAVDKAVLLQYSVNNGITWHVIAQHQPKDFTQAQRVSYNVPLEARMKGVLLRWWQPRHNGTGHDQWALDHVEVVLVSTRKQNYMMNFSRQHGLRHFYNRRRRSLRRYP
UniProt P35250, whole entry, looked up: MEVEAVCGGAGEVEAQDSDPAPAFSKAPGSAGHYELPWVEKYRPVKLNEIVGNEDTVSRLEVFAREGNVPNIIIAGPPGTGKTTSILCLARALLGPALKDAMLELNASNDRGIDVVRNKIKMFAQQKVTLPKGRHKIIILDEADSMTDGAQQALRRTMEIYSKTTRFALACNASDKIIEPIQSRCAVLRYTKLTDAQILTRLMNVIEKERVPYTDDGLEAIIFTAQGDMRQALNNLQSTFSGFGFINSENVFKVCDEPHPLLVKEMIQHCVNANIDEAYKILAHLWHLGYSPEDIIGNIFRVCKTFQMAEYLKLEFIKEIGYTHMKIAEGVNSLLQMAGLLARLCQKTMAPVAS
UniProt Q8IXI2: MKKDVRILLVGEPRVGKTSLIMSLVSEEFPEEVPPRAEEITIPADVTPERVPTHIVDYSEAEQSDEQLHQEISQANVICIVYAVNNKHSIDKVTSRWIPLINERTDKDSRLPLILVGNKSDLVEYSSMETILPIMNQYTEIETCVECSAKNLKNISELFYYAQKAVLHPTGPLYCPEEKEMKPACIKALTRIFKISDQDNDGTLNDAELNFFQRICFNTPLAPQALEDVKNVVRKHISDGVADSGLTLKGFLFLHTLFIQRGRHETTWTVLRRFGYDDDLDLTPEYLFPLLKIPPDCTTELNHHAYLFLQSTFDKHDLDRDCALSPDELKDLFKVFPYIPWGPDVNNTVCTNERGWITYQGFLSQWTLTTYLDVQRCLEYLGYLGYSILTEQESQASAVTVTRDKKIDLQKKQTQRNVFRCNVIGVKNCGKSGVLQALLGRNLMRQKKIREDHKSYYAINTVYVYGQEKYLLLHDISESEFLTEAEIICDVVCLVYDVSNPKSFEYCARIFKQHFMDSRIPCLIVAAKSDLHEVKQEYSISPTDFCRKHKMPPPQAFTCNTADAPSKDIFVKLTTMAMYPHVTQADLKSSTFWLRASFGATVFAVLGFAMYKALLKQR
UniProt Q8WU17: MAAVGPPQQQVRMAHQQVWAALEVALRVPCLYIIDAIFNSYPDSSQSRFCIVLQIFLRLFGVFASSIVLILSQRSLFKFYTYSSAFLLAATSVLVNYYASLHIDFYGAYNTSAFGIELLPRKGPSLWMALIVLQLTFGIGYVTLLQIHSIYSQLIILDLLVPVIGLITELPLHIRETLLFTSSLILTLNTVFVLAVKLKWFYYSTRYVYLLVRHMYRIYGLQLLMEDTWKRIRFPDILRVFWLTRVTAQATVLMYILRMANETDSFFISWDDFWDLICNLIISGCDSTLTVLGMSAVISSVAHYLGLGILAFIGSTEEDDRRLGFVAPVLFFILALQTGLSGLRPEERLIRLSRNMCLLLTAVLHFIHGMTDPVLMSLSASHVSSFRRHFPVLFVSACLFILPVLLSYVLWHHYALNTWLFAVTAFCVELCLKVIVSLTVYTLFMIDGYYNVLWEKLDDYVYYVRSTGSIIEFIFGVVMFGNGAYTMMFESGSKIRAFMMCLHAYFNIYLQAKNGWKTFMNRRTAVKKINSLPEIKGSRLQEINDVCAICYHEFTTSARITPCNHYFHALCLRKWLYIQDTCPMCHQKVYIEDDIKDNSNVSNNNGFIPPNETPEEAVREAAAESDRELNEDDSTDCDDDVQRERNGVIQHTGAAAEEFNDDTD
UniProt Q86VR2, whole entry, looked up: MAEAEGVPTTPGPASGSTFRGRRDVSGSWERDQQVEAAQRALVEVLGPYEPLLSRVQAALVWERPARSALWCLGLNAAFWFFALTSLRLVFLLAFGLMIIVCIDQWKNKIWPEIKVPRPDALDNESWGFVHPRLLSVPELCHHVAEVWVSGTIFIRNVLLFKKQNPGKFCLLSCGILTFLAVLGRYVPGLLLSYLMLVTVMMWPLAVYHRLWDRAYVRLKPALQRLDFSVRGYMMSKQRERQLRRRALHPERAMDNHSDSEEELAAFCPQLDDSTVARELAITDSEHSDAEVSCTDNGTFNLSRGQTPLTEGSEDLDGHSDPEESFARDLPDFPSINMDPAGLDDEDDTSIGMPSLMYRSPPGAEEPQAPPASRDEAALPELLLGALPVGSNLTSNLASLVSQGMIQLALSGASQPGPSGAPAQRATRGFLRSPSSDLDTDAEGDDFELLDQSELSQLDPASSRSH
UniProt Q9H4X1: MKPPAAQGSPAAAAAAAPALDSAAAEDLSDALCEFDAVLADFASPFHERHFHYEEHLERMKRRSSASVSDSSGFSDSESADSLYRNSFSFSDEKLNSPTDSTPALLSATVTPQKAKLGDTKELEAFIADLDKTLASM

Experiments:
Assay in all cases: log2 fold change, soluble protein after heating vs DMSO (PISA); higher = thermal stabilisation; K562 cells, 10 uM, 30 min; active = over 0.2 and 3.5 SD of the protein, either way, in both replicates (recomputed)
bafetinib = compound: Cc1ccc(NC(=O)c2ccc(CN3CC[C@H](N(C)C)C3)c(C(F)(F)F)c2)cc1Nc1nccc(-c2cncnc2)n1 [bafetinib]
Summary of the method: (§1)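 K562 cells at 2×10^6 cells/mL were exposed to 10 μM compound for 30 min, then aliquots were heated for 3 min across 48°C-58°C, pooled, and extracted in PBS containing 0.5% NP-40 at 4°C. The supernatant after 21,000xg for 90 min was taken as soluble protein and measured by TMTpro 16plex LC-MS/MS with channel sums equalised. Thermal stability is reported relative to control samples, with values from duplicates. Fold changes are given on a log2 scale.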

[1] = compound: Cc1cccc(CC(=O)N2CCc3c2ccc(-c2cn(C)c4ncnc(N)c24)c3F)n1
Summary of the method: as §1

nilotinib = compound: Cc1cn(-c2cc(NC(=O)c3ccc(C)c(Nc4nccc(-c5cccnc5)n4)c3)cc(C(F)(F)F)c2)cn1 [nilotinib]
Summary of the method: as §1

[2] = compound: Cc1nc(Nc2n[nH]c3c2CN(C(=O)N[C@H](CN(C)C)c2ccccc2)C3(C)C)c2sccc2n1
Summary of the method: as §1

dasatinib = compound: Cc1nc(Nc2ncc(C(=O)Nc3c(C)cccc3Cl)s2)cc(N2CCN(CCO)CC2)n1 [dasatinib]
Summary of the method: as §1

[3] = compound: Cc1ncc(-c2ccnc(Nc3ccc(S(C)(=O)=O)cc3)n2)n1C(C)C
Summary of the method: as §1

[4] = compound: Cn1cc(-c2ccc3c(c2)CCN3C(=O)Cc2cccc(C(F)(F)F)c2)c2c(N)ncnc21
Summary of the method: as §1

[5] = compound: Cn1cc(-c2ccc3nnc(C(F)(F)c4ccc5ncccc5c4)n3n2)cn1
Summary of the method: as §1

tipifarnib = compound: Cn1cncc1[C@@](N)(c1ccc(Cl)cc1)c1ccc2c(c1)c(-c1cccc(Cl)c1)cc(=O)n2C [tipifarnib]
Summary of the method: as §1

mubritinib = compound: FC(F)(F)c1ccc(/C=C/c2nc(COc3ccc(CCCCn4ccnn4)cc3)co2)cc1 [mubritinib]
Summary of the method: as §1

Measured: log2 fold change

RDH14 (UniProt Q9HBH5)
inactive: bafetinib 0.033 | [1] -0.005 | nilotinib 0.22 | [2] 0.009 | dasatinib -0.1 | [3] -0.004 | [4] 0.066 | [5] -0.002 | tipifarnib 0.096 | mubritinib -0.072

REXO2 (UniProt Q9Y3B8)
inactive: bafetinib -0.038 | [1] -0.031 | nilotinib -0.015 | [2] 0.033 | dasatinib 0.016 | [3] 0.002 | [4] 0.029 | [5] 0.001 | tipifarnib -0.027 | mubritinib 0.037

RIPK2 (UniProt O43353)
inactive: bafetinib -0.156 | [1] 0.044 | nilotinib -0.031 | [2] -0.003 | dasatinib -0.122 | [3] 0.036 | [4] 0.043 | [5] 0.011 | tipifarnib -0.027 | mubritinib -0.008

RNF113A (UniProt O15541)
inactive: bafetinib -0.041 | [1] -0.049 | nilotinib 0.032 | [2] -0.014 | dasatinib 0.022 | [3] 0.018 | [4] 0.045 | [5] -0.048 | tipifarnib -0.009 | mubritinib 0.005

RELN (UniProt P78509)
inactive: bafetinib 0 | [1] -0.042 | nilotinib -0.008 | [2] -0.03 | dasatinib 0.002 | [3] 0.914 | [4] 0.021 | [5] -0.027 | tipifarnib 0.129 | mubritinib -0.116

RDH13 (UniProt Q8NBN7)
inactive: bafetinib -0.068 | [1] -0.03 | nilotinib 0.011 | [2] -0.044 | dasatinib -0.131 | [3] 0.019 | [4] 0.027 | [5] 0.016 | tipifarnib 0.022 | mubritinib -0.032

RNF121 (UniProt Q9H920)
inactive: bafetinib 0.063 | [1] 0.023 | nilotinib -0.008 | [2] 0.017 | dasatinib 0 | [3] -0.042 | [4] 0.026 | [5] -0.166 | tipifarnib 0.059 | mubritinib -0.031

RIOK3 (UniProt O14730)
inactive: bafetinib -0.004 | [1] -0.02 | nilotinib -0.017 | [2] 0.06 | dasatinib 0.053 | [3] -0.01 | [4] 0.018 | [5] -0.005 | tipifarnib 0.002 | mubritinib 0.017

RILP (UniProt Q96NA2)
inactive: bafetinib -0.088 | [1] -0.006 | nilotinib -0.019 | [2] -0.058 | dasatinib -0.084 | [3] 0.019 | [4] 0.07 | [5] -0.005 | tipifarnib -0.044 | mubritinib 0.076

RNF170 (UniProt Q96K19)
inactive: bafetinib 0.069 | [1] 0.004 | nilotinib 0.083 | [2] 0.091 | dasatinib 0.248 | [3] -0.11 | [4] 0.081 | [5] 0.029 | tipifarnib 0.572 | mubritinib -0.282

RMDN1 (UniProt Q96DB5)
inactive: bafetinib -0.077 | [1] 0.065 | nilotinib -0.027 | [2] -0.006 | dasatinib -0.043 | [3] 0.018 | [4] 0.062 | [5] -0.006 | tipifarnib -0.04 | mubritinib 0.086

RFC2 (UniProt P35250)
inactive: bafetinib -0.05 | [1] -0.023 | nilotinib -0.073 | [2] -0.035 | dasatinib -0.077 | [3] -0.017 | [4] 0.03 | [5] -0.004 | tipifarnib -0.026 | mubritinib -0.056

RINT1 (UniProt Q6NUQ1)
inactive: bafetinib 0.169 | [1] 0.014 | nilotinib 0.001 | [2] -0.042 | dasatinib 0.028 | [3] -0.01 | [4] -0.051 | [5] -0.057 | tipifarnib -0.075 | mubritinib 0.039

RNF220 (UniProt Q5VTB9)
inactive: bafetinib -0.064 | [1] 0.008 | nilotinib 0.009 | [2] -0.058 | dasatinib 0.01 | [3] 0.037 | [4] -0.034 | tipifarnib -0.003 | mubritinib 0.002
active: [5] 0.239

RNF149 (UniProt Q8NC42)
inactive: bafetinib 0.03 | [1] 0.039 | nilotinib -0.021 | [2] -0.004 | dasatinib -0.137 | [3] 0.078 | [4] -0.104 | [5] -0.023 | tipifarnib 0.048 | mubritinib -0.007

RIOX2 (UniProt Q8IUF8)
inactive: bafetinib 0.105 | [1] -0.054 | nilotinib -0.002 | [2] 0.119 | dasatinib -0.005 | [3] -0.015 | [4] -0.066 | [5] 0.001 | tipifarnib 0.018 | mubritinib 0.028

RFX1 (UniProt P22670)
inactive: bafetinib 0.023 | [1] -0.008 | nilotinib -0.027 | [2] 0.012 | dasatinib -0.02 | [3] 0.004 | [4] 0.054 | [5] 0.023 | tipifarnib -0.013 | mubritinib 0.029

Two records picked at random from those above, as already listed:
RNF149 (UniProt Q8NC42)
inactive: bafetinib 0.03 | [1] 0.039 | nilotinib -0.021 | [2] -0.004 | dasatinib -0.137 | [3] 0.078 | [4] -0.104 | [5] -0.023 | tipifarnib 0.048 | mubritinib -0.007

RFX1 (UniProt P22670)
inactive: bafetinib 0.023 | [1] -0.008 | nilotinib -0.027 | [2] 0.012 | dasatinib -0.02 | [3] 0.004 | [4] 0.054 | [5] 0.023 | tipifarnib -0.013 | mubritinib 0.029

Further records.

RHOT1 isoform 3 (UniProt Q8IXI2)
inactive: bafetinib -0.054 | [1] 0.012 | nilotinib -0.051 | [2] -0.004 | dasatinib -0.059 | [3] -0.007 | [4] 0.007 | [5] 0.003 | tipifarnib 0.008 | mubritinib 0.038

RETREG2 (UniProt Q8NC44)
inactive: bafetinib -0.113 | nilotinib -0.042 | [2] 0.026 | dasatinib -0.092 | [3] -0.004 | [4] 0.006 | [5] 0.078 | tipifarnib 0.012 | mubritinib -0.081

RCCD1 (UniProt A6NED2)
inactive: bafetinib -0.08 | [1] 0.021 | nilotinib 0.033 | [2] -0.058 | dasatinib -0.014 | [3] 0.015 | [4] 0.076 | [5] 0.004 | tipifarnib -0.004 | mubritinib 0.011

RGS10 (UniProt O43665)
inactive: bafetinib -0.08 | [1] 0.032 | nilotinib -0.057 | [2] 0.002 | dasatinib -0.034 | [3] 0.009 | [4] 0.126 | [5] -0.031 | tipifarnib -0.043 | mubritinib -0.019

RNF139 (UniProt Q8WU17)
inactive: bafetinib -0.042 | [1] 0.123 | nilotinib -0.032 | [2] 0.027 | [3] 0.016 | [5] -0.181 | mubritinib -0.005

RFX5 (UniProt P48382)
inactive: bafetinib -0.083 | [1] 0.034 | nilotinib 0.205 | [2] -0.174 | [3] -0.193 | [5] -0.095 | tipifarnib 0.017

RNF213 isoform 4 (UniProt Q63HN8)
inactive: bafetinib -0.295 | [1] 0.077 | nilotinib -0.243 | [2] -0.018 | dasatinib -0.327 | [3] 0.09 | [4] -0.028 | [5] -0.053 | tipifarnib 0.109 | mubritinib 0.019

RGS14 (UniProt O43566)
inactive: bafetinib -0.331 | [1] 0.058 | nilotinib -0.233 | [2] 0.194 | [3] -0.053 | [4] -0.02 | [5] -0.03 | mubritinib 0.025

RETREG3 (UniProt Q86VR2)
inactive: bafetinib -0.164 | [1] -0.032 | nilotinib 0.015 | [2] 0.003 | dasatinib -0.045 | [3] 0.033 | [4] -0.007 | [5] 0.11 | tipifarnib -0.034 | mubritinib 0

RGCC (UniProt Q9H4X1)
inactive: bafetinib 0.102 | [1] -0.266 | nilotinib 0.391 | [2] -0.076 | [3] 0

RBM39 (UniProt Q14498)
active: [2] -1.03
inactive: bafetinib 0.046 | [1] 0.082 | nilotinib -0.027 | dasatinib -0.1 | [3] 0.055 | [4] -0.041 | [5] -0.012 | tipifarnib -0.03 | mubritinib -0.043
